Source: ChEMBL document CHEMBL3988442, “University of Dundee, Small-Polar-MMV Screening Library” (2021).

Protein sequences, listed by entry. Tags and fused reporters are not part of them. Residues count along the entry.
UniProt P9WFT3, whole entry: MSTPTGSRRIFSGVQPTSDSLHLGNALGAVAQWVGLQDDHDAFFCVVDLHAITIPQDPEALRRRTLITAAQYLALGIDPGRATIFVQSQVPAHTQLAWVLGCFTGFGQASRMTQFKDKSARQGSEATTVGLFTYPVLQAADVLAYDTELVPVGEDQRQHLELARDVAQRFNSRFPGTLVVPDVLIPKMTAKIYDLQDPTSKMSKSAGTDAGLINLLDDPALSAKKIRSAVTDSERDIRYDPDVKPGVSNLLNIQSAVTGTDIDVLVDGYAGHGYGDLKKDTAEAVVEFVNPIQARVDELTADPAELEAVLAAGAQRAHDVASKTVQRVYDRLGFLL
UniProt Q4DA54, 1-478: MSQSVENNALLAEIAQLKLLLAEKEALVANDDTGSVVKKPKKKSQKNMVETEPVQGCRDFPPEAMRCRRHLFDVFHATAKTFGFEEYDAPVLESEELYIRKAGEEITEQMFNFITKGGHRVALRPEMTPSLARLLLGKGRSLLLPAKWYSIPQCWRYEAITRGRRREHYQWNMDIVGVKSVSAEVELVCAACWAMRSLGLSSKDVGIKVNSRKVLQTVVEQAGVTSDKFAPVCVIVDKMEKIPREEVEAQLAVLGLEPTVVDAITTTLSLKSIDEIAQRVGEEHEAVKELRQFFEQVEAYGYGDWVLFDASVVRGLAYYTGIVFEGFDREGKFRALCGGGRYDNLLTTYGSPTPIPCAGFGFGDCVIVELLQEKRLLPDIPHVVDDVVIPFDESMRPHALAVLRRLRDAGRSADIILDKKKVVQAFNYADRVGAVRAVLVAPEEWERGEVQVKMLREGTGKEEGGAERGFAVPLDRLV
UniProt Q8IDJ8, 1-583: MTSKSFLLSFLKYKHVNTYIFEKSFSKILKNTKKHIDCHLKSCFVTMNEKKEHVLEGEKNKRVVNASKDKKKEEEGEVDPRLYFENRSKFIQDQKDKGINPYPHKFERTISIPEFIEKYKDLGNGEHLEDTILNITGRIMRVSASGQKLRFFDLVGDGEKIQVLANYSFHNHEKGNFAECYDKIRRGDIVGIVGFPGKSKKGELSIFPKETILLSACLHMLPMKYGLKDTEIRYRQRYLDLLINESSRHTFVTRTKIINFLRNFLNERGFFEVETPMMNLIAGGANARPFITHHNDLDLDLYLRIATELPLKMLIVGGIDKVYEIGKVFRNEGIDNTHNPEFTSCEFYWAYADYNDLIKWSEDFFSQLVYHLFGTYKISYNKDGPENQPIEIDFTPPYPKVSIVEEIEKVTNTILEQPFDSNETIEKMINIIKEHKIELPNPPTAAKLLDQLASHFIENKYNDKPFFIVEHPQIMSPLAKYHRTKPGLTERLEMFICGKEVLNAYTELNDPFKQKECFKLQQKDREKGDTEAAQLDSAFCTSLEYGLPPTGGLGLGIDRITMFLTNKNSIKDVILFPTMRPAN
UniProt P9WNZ1, whole entry: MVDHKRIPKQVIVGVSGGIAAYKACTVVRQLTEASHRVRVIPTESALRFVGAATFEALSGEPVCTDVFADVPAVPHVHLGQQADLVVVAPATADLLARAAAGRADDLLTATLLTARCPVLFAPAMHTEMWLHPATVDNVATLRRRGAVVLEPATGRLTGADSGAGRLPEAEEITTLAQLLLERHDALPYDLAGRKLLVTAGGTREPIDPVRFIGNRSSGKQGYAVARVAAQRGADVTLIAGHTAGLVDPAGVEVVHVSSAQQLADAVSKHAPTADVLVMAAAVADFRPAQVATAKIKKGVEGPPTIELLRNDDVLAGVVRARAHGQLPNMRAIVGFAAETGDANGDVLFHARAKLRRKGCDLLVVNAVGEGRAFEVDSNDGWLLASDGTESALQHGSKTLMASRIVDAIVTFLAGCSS
UniProt I6X8D2, whole entry: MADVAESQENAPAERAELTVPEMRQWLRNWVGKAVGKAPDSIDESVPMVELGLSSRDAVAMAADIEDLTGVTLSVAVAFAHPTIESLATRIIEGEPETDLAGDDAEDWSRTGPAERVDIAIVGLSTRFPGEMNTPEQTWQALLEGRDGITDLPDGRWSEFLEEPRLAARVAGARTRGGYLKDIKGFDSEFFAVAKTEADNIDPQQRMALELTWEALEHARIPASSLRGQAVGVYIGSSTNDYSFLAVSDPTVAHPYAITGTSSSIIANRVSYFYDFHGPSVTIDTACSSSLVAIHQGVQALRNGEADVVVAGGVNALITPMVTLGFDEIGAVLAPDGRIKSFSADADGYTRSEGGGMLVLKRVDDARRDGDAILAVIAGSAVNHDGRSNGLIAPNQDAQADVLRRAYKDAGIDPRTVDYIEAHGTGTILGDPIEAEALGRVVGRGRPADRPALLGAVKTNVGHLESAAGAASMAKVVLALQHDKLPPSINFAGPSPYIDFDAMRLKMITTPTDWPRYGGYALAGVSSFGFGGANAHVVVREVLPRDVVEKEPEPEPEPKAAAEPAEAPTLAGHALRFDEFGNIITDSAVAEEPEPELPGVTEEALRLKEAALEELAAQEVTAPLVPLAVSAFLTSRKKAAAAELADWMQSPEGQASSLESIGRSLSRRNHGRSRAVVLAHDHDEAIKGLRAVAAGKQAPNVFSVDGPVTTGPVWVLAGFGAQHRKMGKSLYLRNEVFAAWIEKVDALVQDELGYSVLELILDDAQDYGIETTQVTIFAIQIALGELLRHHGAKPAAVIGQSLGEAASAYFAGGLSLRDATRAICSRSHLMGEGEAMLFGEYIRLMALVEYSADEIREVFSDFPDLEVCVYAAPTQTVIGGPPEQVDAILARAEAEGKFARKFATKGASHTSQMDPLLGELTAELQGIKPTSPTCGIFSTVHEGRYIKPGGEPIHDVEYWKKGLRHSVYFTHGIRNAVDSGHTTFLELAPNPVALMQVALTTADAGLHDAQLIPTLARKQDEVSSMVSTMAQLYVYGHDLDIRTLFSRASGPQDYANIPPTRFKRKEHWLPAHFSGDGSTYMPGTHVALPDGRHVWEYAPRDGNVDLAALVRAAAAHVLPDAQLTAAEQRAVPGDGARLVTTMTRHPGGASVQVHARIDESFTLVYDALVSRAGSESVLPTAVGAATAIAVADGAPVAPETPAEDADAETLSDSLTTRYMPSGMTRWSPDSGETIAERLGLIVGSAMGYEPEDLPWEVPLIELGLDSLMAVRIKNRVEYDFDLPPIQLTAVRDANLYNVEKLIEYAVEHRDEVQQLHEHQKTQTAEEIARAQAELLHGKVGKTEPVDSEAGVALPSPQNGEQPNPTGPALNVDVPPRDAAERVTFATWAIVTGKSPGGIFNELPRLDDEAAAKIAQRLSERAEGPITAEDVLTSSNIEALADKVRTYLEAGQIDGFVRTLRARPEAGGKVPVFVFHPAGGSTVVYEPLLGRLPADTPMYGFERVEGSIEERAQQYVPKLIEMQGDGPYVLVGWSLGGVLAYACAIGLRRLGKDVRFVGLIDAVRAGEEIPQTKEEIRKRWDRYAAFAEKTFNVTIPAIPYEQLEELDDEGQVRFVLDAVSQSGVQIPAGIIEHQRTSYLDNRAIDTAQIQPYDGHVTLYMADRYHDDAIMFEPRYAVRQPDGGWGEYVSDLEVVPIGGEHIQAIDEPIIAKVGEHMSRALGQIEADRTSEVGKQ

A: 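Enzyme assay of tryptophanyl-tRNA synthetase; the read-out is not stated. Target: Tryptophan-tRNA ligase, Mycobacterium tuberculosis (UniProt P9WFT3). Compounds at 10 µM. Direction is not recorded; retested compounds ran higher, which suggests that high means inhibition. About 65,000 compounds were tested under these conditions; 0.098% (about 64) showed 50% or more at least once.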
B: 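Enzyme assay of histidyl-tRNA synthetase; the read-out is not stated. Target: Histidine-tRNA ligase, Trypanosoma cruzi CL Brener (UniProt Q4DA54). Tested at 30 µM. Higher reads as stronger inhibition (inferred: compounds with an IC50 in retests scored well above the rest). Of about 69,000 compounds tested this way, about 31 (0.045%) reached 50% or more in at least one test.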
C: 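Enzyme assay of the cytosolic lysyl-tRNA synthetase in 384-well plates, read by luminescence. Target: Lysine-tRNA ligase, Plasmodium falciparum 3D7 (UniProt Q8IDJ8). Concentration: 30 µM. Higher reads as stronger inhibition, judged from the few compounds that gave an IC50. Size under these conditions: about 69,000 compounds, about 49 of them at 50% or above in at least one test.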
D: 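Coenzyme A biosynthesis protein CoaBC, Mycobacterium tuberculosis (UniProt P9WNZ1). Enzyme assay of CoaBC with a phosphate dye (Biomol Green) read at 650 nm. Concentration: 30 µM. Direction is inferred from only a few compounds that gave an IC50; most scored high, so higher reads as stronger inhibition. Most strong results did not repeat in a second test. Of about 67,000 compounds tested this way, about 40 (0.06%) reached 50% or more in at least one test.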
E: 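Polyketide synthase Pks13, Mycobacterium tuberculosis (UniProt I6X8D2). Enzyme assay of the thioesterase domain of polyketide synthase 13; the read-out is not stated. Concentration: 30 µM. Higher reads as stronger inhibition (inferred from which compounds were picked for retests). Of about 67,000 compounds tested this way, about 300 (0.46%) reached 50% or more in at least one test.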
F: 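Cell assay of Leishmania donovani living inside macrophages; the read-out is not stated. Tested at 30 µM. The record gives no direction; compounds that gave an IC50 in retests scored well above the rest, so higher reads as stronger inhibition. About 69,000 compounds were tested under these conditions; 1.5% (about 1,000) showed 50% or more at least once.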

Each number is a percent effect as filed.
The record does not define 0% and 100%; most values in the screen are far below 50% and negative numbers occur (in some assays of this library far below -100).
Compounds were drawn at random from those tested, without regard to their results.
Two or more numbers in one place are separate tests of the same structure; such repeats can differ widely.
A dash means the value is not listed here; it may have been measured.

structure,A,B,C,D,E,F
Cc1cc(C(=O)N2CCCC3(COCCN(CCN(C)C)C3)C2)no1.O=C(O)C(F)(F)F.O=C(O)C(F)(F)F (stereo not shown),-,-,-,-,-,30.15
CCn1nc(C)c(C(C)Nc2cc(C3CCNCC3)nc(C)n2)c1C (stereo not shown),5.662,2.488,1.897,6.901,-7.282,-39.73
CCC(C)N(Cc1cccnc1)Cc1cc2c(cc1Cl)OCO2 (stereo not shown),1.547,6.383,1.3,8.835,4.626,69.06
CC(=O)CN1CC2(CCNCC2)COc2ccccc2S1(=O)=O,-1.383,-4.878,-0.7628,2.256,-5.325,-
Cc1cc(C)nc(Nc2cc(C)nc(C3CCN(C(C)C)C3)n2)n1 (stereo not shown),-3.041,6.818,0.1138,0.2628,-0.1827,19.41
Cn1cnnc1C1CCCN(C(=O)NCc2ccc3c(c2)OCO3)C1 (stereo not shown),-1.798,1.132,6.336,-0.7692,-14.48,12.63
CN1CCN(Cc2cn3c(n2)CN(Cc2ccccn2)CC3)CC1,-,1.508,3.287,5.322,-6.188,-6.311
COc1cccc(CNC(=O)N2CCN3CCNC(=O)C3C2)c1 (stereo not shown),-6.867,-33.15,10.53,0,-25.77,2.254
O=C(c1ccccc1-c1nc[nH]n1)N1CCOC(C(F)(F)F)C1 (stereo not shown),0.6192,3.947,2.112,-,-8.649,-11.66
O=C(O)C(F)(F)F.O=c1ccc2c(n1CC1CCOCC1)CCN(Cc1ccoc1)CC2,-,-,-,-,-,-5.696
Cc1cn2c(n1)CCC(NC(=O)COCCOc1ccccc1)C2 (stereo not shown),0.6517,3.333,5.512,-8.678,-8.107,12.66
CCN1CC2(CCC1=O)CCN(C(=O)c1ccc(C)cc1O)CC2,-1.782,1.339,3.181,3.571,-15.4,-1.441
N#Cc1ccc(CN2CCN(C(=O)C3CCC3)[C@@H]3CS(=O)(=O)C[C@@H]32)cc1,-2.403,4.184,-2.232,-14.55,3.71,-
CCN1CC(=O)NCC12CCN(C(=O)c1ccno1)C2 (stereo not shown),-1.536,10.68,3.143,2.036,-35.19,-
O=S(=O)(CCCn1cncn1)Cc1cccc(F)c1,4.479,3.448,5.325,3.226,-27.96,20.48
CN1CCCC1c1ccnc2nccn12 (stereo not shown),1.501,1.695,4.239,-4.843,3.622,19.16
CCN1CCN(C(=O)c2cn(Cc3ccccc3)c3ncccc23)CC1,-,10.23,3.522,1.942,3.964,33.19
CC(C)C1CN(c2nccc(N)n2)CCC(=O)N1Cc1ccc(F)cc1 (stereo not shown),-5.221,5.941,3.245,3.752,9.597,-20.97
Cn1cc(CN2CC[C@H](O)[C@@H]2Cc2ccccc2)cn1.O=C(O)C(F)(F)F,-,-,-,-,-,36.59
COCC(=O)N1CC[C@H]2C[C@H](c3nc(C)no3)O[C@@H]2C1,-3.868,2.956,0.4412,-0.2538,-7.239,-
O=C(O)C(F)(F)F.O=C(O)C(F)(F)F.[H][C@@]12CN(CCN3CCCC3)CC[C@]1([H])CN(c1cnccn1)C2,-,-,-,-,-,50.81
CCc1nnc(CN2CCN(C(=O)c3cc4ccccc4[nH]3)CC2)o1,-3.206,-1.132,4.586,4.359,-12.28,17.69
O=C(NCC1CC1)[C@@H]1CC[C@@H]2[C@@H](CCN2Cc2ccco2)O1,-5.172,9.346,-0.5325,-12.1,-28.85,-
O[C@]12CCNC[C@H]1CN(c1ccnc3ccccc13)CC2,23.15,3.077,0.8174,-3.215,-11.71,-
O=C(NS(=O)(=O)c1ccccc1)c1ccccc1F,-9.459,6.145,6.072,7.258,-2.371,-8.079
O=C1COC2(CCN(C(=O)c3ccco3)CC2)CN1Cc1ccccn1,-0.5344,6.015,1.774,1.935,4.277,-
CC(=O)N1CCC(c2[nH]ncc2S(C)(=O)=O)CC1,3.736,1.538,0.5957,4.038,-18.12,-2.886
CCC(O)CN1CCN(C(=O)Cc2cc(Cl)ccc2OC)CC1 (stereo not shown),2.568,2.662,5.233,2.372,-6.347,30.34
CN(CCCOc1ccccc1)Cc1nc2c(cnn2C)c(=O)[nH]1,-0.2201,3.468,0.9252,3.704,-13.4,10.95
CN1CCN(C2COC3(CCN(c4ccc(C#N)cc4)CC3)C2)CC1.O=C(O)C(F)(F)F (stereo not shown),-,-,-,-,-,32.83
CC(C)CN1CCN(C)C2(CCN(c3nccs3)CC2)C1=O.O=C(O)C(F)(F)F,-,-,-,-,-,-11.48
COc1ccc(CN2CCn3cc(CNC(=O)C4CCC4)nc3C2)cc1.O=C(O)C(F)(F)F,-,-,-,-,-,-20.71
O=C(O)CC(O)(CC(=O)O)C(=O)O.[H][C@@]12CC[C@@](O)(c3ccc(C)cn3)[C@]1([H])CN(Cc1cc(C)c(O)c(C)c1)C2,-,-,-,-,-,50.06
CCn1nc(C)c2nnn(CC(=O)Nc3cccc(Cl)c3)c(=O)c21,-3.216,3.825,6.472,-1.48,-31.71,25.81
CCN(CC1CCOC1)C(=O)c1cc(OC)c2c(c1)OCCO2 (stereo not shown),-0.8249,-10.98,3.669,2.481,-6.33,-24.99
O=C(c1cc(Cn2cnc3ccccc32)on1)N1CCOCC1,2.559,1.205,8.581,-0.2475,1.26,28.69
CC1CN(Cc2nccn2C)CCN1c1ccc2nncn2n1 (stereo not shown),3.597,-3.817,2.145,4.819,-9.392,32.25
CN(C)CC(C)(C)Cn1cnc(-c2ccccc2)c1-c1ccncc1,2.365,4.124,4.573,-34.23,-9.216,-8.866
COC[C@@]12CC[C@@H](N3CCOCC3)C[C@H]1CCN(c1ccc(Cl)cn1)C2,2.916,-2.041,11.67,8.73,-16.8,-
O=c1cc(-c2cccnc2)nc(-c2ccc(CN3CC[C@@H](O)C3)cc2)[nH]1,-4.77,5.587,1.268,2.314,9.083,-9.687
COc1cccc(CNC(=O)NC2(c3nc(C)no3)CCCCC2)c1,14.82,-1.031,-1.347,10.78,-5.121,17.88 and 2.725
CCOC1COC2(CCN(CC3CCOCC3)CC2)C1.O=C(O)C(F)(F)F (stereo not shown),-,-,-,-,-,39.34
O=C(O)C(F)(F)F.O=S(=O)(c1ccccc1)N1CCC2(CCCN2Cc2cccc(Cl)c2)C1 (stereo not shown),-,-,-,-,-,27.63
CCc1ccccc1Nc1noc2c1CN(C(=O)c1ccn(C)n1)CC2,-7.637,6.78,0.6774,-6.78,0.9591,28.05
O=C(O)C(F)(F)F.[H][C@@]12CCN(Cc3ccco3)C[C@]1([H])[C@@H](CNC(=O)c1ccnnc1)OC2,-,-,-,-,-,41.35
Cn1cc(S(=O)(=O)NCc2ccsc2)cn1,6.702,0.5291,1.536,6.561,-19.09,9.089
CN1CCC2(CC1)C(=O)N(CC1CC1)c1ccccc12.O=C(O)C(F)(F)F,-,-,-,-,-,33.67
[H][C@]12CN(c3ccccn3)CCN1C[C@@H](c1ccccc1)[C@@H]2CO,-,-,-,-,-,-0.8296
Cc1ccccc1C1(C(=O)N2CCOC(C)C2)CCOCC1 (stereo not shown),0.8073,7.609,5.683,0.2016,-8.122,-3.571
CC(CN1CCC2(CC1)c1nc[nH]c1CCN2S(C)(=O)=O)C(F)(F)F (stereo not shown),-5.877,2.439,5.546,5.907,1.323,-9.004
CNS(=O)(=O)c1ccc(CCC(=O)NCc2cccc(OC)c2)cc1,3.71,10.05,1.549,5.977,-5.162,33.26
O=C(O)C(F)(F)F.O=C(O)C(F)(F)F.c1cncc(CN2CCn3c(Cn4cncn4)cnc3C2)c1,-,-,-,-,-,-28.73
CCN1C[C@@H]2CN(S(=O)(=O)c3cccs3)C[C@@H]2C1=O,-2.991,8.738,2.57,4.58,-21.92,-
Cc1cnc2[nH]c(C(F)(F)F)c(CN3CCOCC3)c2c1,11.58,6.202,-1.016,-10.67,-89.92,-31.54
CCn1cc(CN2C[C@H]3CC[C@@H]2CN(C(=O)C2CCC2)C3)cn1,-4.727,9.677,3.693,2.657,-14.48,-
CCNC(=O)NCCCn1nc2ccccn2c1=O,1.554,-4.36,1.8,-19.91,0.2649,-6.96
CC(OCC1CC1)C(=O)Nc1ncn(CC(=O)N2CCCCCC2)n1 (stereo not shown),24.96,2.941,-1.227,4.348,-26.41,-7.531
[H][C@@]12CS(=O)(=O)C[C@]1([H])N(C(=O)c1ccc(C)cc1OC)CCN2CCOC,-,-,-,-,-,0.2175

For reference, 4 entries once more:

structure,A,B,C,D,E,F
CCN1CC2(CCC1=O)CCN(C(=O)c1ccc(C)cc1O)CC2,-1.782,1.339,3.181,3.571,-15.4,-1.441
Cc1ccccc1C1(C(=O)N2CCOC(C)C2)CCOCC1 (stereo not shown),0.8073,7.609,5.683,0.2016,-8.122,-3.571
CCN(CC1CCOC1)C(=O)c1cc(OC)c2c(c1)OCCO2 (stereo not shown),-0.8249,-10.98,3.669,2.481,-6.33,-24.99
COc1ccc(CN2CCn3cc(CNC(=O)C4CCC4)nc3C2)cc1.O=C(O)C(F)(F)F,-,-,-,-,-,-20.71